From article PMC7822688, “W196 and the β-Hairpin Motif Modulate the Redox Switch of Conformation and the Biomolecular Interaction Network of the Apoptosis-Inducing Factor” (Oxidative Medicine and Cellular Longevity, 2021)

test system: dsDNA; test: ITC binary interaction with dsDNA; format: binding; conditions: oxidized hAIF∆1-101 titrated with 15-bp dsDNA, 25°C, pH 7.4
Experimental: ITC assays were carried out using an Auto-iTC200 (MicroCal, Malvern-Panalytical, Malvern, UK) thermostated at 25 °C. Typically, […] protein partner and dsDNA samples—prepared as described below—were used to titrate ~10 μM hAIF∆1-101 variants. All solutions were degassed at 15°C for 1 min before each assay. A sequence of 2 μL injections of titrant solution every 150 s was programmed, and the stirring speed was set to 750 rpm. The association constant (Ka), the enthalpy of binding (ΔH), and the binding stoichiometry (N) were estimated through nonlinear least-squares regression of the experimental data employing a single-ligand binding site model implemented in Origin 7.0 (OriginLab, Northampton, MA). The dissociation constant (Kd), the free energy change (ΔG), and the entropy change (ΔS) were obtained from basic thermodynamic relationships.
Since hAIF binds DNA unspecifically, a 0.5 mM dsDNA sample was prepared from 1 mM solutions of HPLC-purified forward and a reverse complementary 15-bp oligonucleotides (5′- GGT TAG TTA TGC GCG -3′; randomly designed) synthetized by Integrated DNA Technologies. The pair of oligonucleotides was mixed at an equimolar ratio and annealed by heating 1 min at 99°C and performing a 3 h temperature scanning from 95 to 25°C, decreasing 1°C each 3 min. 0.5 mM dsDNA stock solutions were obtained.

Substance	-TΔS	ΔG	ΔH
W196A: W196A site-directed mutant of hAIF∆1-101; ox = oxidized, CTC = charge transfer complex with NAD+	-22.0 kcal/mol	-6.9 kcal/mol	15.0 kcal/mol
W196Y: W196Y site-directed mutant of hAIF∆1-101; ox = oxidized, CTC = charge transfer complex with NAD+	-26.0 kcal/mol	-6.8 kcal/mol	19.2 kcal/mol
WT: wild-type human apoptosis-inducing factor, soluble form hAIF∆1-101 (UniProtKB O95831); ox = oxidized, CTC = NADH-reduced charge transfer complex	-12.4 kcal/mol	-7.6 kcal/mol	4.8 kcal/mol
